Assay results as given in PMC10208015.
No constants are given. Whether binding was seen depends on the method and setting. In cells and extracts the contact can be indirect. Some binding calls cover weakened binding; strength is not graded here.

The chains behind the UniProt entries cited, without tags or fusion partners.
UniProt Q8N884: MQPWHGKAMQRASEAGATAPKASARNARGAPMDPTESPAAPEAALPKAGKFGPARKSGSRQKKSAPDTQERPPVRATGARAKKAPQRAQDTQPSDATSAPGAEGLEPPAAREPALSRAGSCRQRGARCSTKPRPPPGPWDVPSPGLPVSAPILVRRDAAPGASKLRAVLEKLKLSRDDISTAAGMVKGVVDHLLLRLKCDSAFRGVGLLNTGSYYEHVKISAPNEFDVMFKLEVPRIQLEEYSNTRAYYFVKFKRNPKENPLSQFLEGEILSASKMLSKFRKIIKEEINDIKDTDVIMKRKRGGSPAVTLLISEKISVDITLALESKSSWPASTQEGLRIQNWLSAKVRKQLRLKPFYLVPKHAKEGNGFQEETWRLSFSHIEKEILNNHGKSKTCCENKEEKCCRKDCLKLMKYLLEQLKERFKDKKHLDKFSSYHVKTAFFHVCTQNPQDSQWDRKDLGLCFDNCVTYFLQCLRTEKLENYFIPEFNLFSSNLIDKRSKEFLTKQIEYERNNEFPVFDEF
UniProt O60934: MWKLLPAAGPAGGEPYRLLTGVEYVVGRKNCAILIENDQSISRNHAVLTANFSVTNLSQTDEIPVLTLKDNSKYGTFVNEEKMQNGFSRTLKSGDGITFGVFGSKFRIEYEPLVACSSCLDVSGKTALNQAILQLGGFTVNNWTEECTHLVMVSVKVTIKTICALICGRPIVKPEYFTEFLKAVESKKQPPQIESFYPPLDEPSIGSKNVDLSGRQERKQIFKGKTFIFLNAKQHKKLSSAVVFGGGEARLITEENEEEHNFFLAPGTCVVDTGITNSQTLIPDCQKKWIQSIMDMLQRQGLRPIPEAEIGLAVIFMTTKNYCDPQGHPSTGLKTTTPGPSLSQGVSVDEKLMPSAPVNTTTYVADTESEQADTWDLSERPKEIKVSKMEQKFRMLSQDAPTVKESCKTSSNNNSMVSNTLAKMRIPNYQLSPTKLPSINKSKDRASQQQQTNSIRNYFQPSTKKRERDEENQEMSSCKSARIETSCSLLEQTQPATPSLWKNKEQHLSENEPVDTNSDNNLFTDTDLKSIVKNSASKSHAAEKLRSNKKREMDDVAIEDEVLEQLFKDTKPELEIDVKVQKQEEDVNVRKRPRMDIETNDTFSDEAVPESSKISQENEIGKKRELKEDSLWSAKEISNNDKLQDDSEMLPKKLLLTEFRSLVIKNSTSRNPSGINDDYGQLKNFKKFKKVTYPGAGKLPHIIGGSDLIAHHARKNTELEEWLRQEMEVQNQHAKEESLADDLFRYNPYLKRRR

Columns and labels:
[1] = target: cyclic GMP-AMP synthase (cGAS) (human (endogenous in AGS)) (UniProt Q8N884); experiment: co-IP; endogenous proteins of AGS cells, mild lysis; anti-cGAS or anti-NBN antibody on protein A/G magnetic beads, incubated with lysate overnight at 4°C; IgG as negative control; detection by immunoblotting
[2] = target: NBN (human (endogenous in AGS)) (UniProt O60934); experiment: as above

binding [1] | binding [2] | Substance
binds |  | NBN (from UniProt O60934 1-754)
 | binds | cyclic GMP-AMP synthase (cGAS) (from UniProt Q8N884 1-522)
